Here are results for two molecules from publication PMC2726289.

Results are given in words; binding and its absence hold for the method and conditions named. For some assays here: In cells and extracts the contact can be indirect. Some entries that bind do so weakly or less than the wild type. Where a sequence is shown, tags or fusion partners need not be part of it.

For test [1], the target named is T1, GST-tagged GRAF1 SH3 domain (UniProt Q9UNA1).
T1 sequence: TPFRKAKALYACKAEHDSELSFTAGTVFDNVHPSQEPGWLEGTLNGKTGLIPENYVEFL
In words: pull-down; bead-bound GST-tagged GRAF1 SH3 domain with purified Dynamin; pellet and supernatant fractions on Coomassie-stained gels; both purified.

In test [2] the target is T1, GST-tagged GRAF1 SH3 domain. In words: pull-down; GST-tagged GRAF1 SH3 domain as bait against brain cytosol or HeLa cell lysate; only the target purified.

B1: purified Dynamin1 (protein, UniProt P21575 1-864)
chain: MGNRGMEDLIPLVNRLQDAFSAIGQNADLDLPQIAVVGGQSAGKSSVLENFVGRDFLPRGSGIVTRRPLVLQLVNSTTEYAEFLHCKGKKFTDFEEVRLEIEAETDRVTGTNKGISPVPINLRVYSPHVLNLTLVDLPGMTKVPVGDQPPDIEFQIRDMLMQFVTKENCLILAVSPANSDLANSDALKIAKEVDPQGQRTIGVITKLDLMDEGTDARDVLENKLLPLRRGYIGVVNRSQKDIDGKKDITAALAAERKFFLSHPSYRHLADRMGTPYLQKVLNQQLTNHIRDTLPGLRNKLQSQLLSIEKEVDEYKNFRPDDPARKTKALLQMVQQFAVDFEKRIEGSGDQIDTYELSGGARINRIFHERFPFELVKMEFDEKELRREISYAIKNIHGIRTGLFTPDLAFEATVKKQVQKLKEPSIKCVDMVVSELTSTIRKCSEKLQQYPRLREEMERIVTTHIREREGRTKEQVMLLIDIELAYMNTNHEDFIGFANAQQRSNQMNKKKTSGNQDEILVIRKGWLTINNIGIMKGGSKEYWFVLTAENLSWYKDDEEKEKKYMLSVDNLKLRDVEKGFMSSKHIFALFNTEQRNVYKDYRQLELACETQEEVDSWKASFLRAGVYPERVGDKEKASETEENGSDSFMHSMDPQLERQVETIRNLVDSYMAIVNKTVRDLMPKTIMHLMINNTKEFIFSELLANLYSCGDQNTLMEESAEQAQRRDEMLRMYHALKEALSIIGDINTTTVSTPMPPPVDDSWLQVQSVPAGRRSPTSSPTPQRRAPAVPPARPGSRGPAPGPPPAGSALGGAPPVPSRPGASPDPFGPPPQVPSRPNRAPPGVPSRSGQASPSRPESPRPPFDL
Regarding B1, in test [1], the binding entry is reported as “binds”.

B2: Dynamin1 (rat brain cytosol) (protein, UniProt P21575 1-864)
chain: MGNRGMEDLIPLVNRLQDAFSAIGQNADLDLPQIAVVGGQSAGKSSVLENFVGRDFLPRGSGIVTRRPLVLQLVNSTTEYAEFLHCKGKKFTDFEEVRLEIEAETDRVTGTNKGISPVPINLRVYSPHVLNLTLVDLPGMTKVPVGDQPPDIEFQIRDMLMQFVTKENCLILAVSPANSDLANSDALKIAKEVDPQGQRTIGVITKLDLMDEGTDARDVLENKLLPLRRGYIGVVNRSQKDIDGKKDITAALAAERKFFLSHPSYRHLADRMGTPYLQKVLNQQLTNHIRDTLPGLRNKLQSQLLSIEKEVDEYKNFRPDDPARKTKALLQMVQQFAVDFEKRIEGSGDQIDTYELSGGARINRIFHERFPFELVKMEFDEKELRREISYAIKNIHGIRTGLFTPDLAFEATVKKQVQKLKEPSIKCVDMVVSELTSTIRKCSEKLQQYPRLREEMERIVTTHIREREGRTKEQVMLLIDIELAYMNTNHEDFIGFANAQQRSNQMNKKKTSGNQDEILVIRKGWLTINNIGIMKGGSKEYWFVLTAENLSWYKDDEEKEKKYMLSVDNLKLRDVEKGFMSSKHIFALFNTEQRNVYKDYRQLELACETQEEVDSWKASFLRAGVYPERVGDKEKASETEENGSDSFMHSMDPQLERQVETIRNLVDSYMAIVNKTVRDLMPKTIMHLMINNTKEFIFSELLANLYSCGDQNTLMEESAEQAQRRDEMLRMYHALKEALSIIGDINTTTVSTPMPPPVDDSWLQVQSVPAGRRSPTSSPTPQRRAPAVPPARPGSRGPAPGPPPAGSALGGAPPVPSRPGASPDPFGPPPQVPSRPNRAPPGVPSRSGQASPSRPESPRPPFDL
In the case of B2, the binding entry in test [2] was “binds”.
